For at least one entry, the source does not settle the construct or the ends of the probe. No signal at the amounts used counts as a negative. For some of these results: At least one verdict was read from the data and is not stated in words by the source.
Experiments:
GST-DCL3 F1 = GST-DCL3 F1 (UniProt Q9LXW7); assay: MST, EMSA; conditions: EMSA: as in Duan et al. 2012, 1 nmol protein, biotin-labelled RNA; recombinant protein; protein details: GST; label: biotin 3' end (EMSA), unlabeled in MST
GST-DCL3 F2 = GST-DCL3 F2 (UniProt Q9LXW7); assay: MST, EMSA; conditions: EMSA: as in Duan et al. 2012, 1 nmol protein, biotin-labelled RNA; recombinant protein; protein details: GST; label: biotin 3' end (EMSA), unlabeled in MST
GST-DCL3 F3 = GST-DCL3 F3 (UniProt Q9LXW7); assay: MST, EMSA; conditions: EMSA: as in Duan et al. 2012, 1 nmol protein, biotin-labelled RNA; recombinant protein; protein details: GST; label: biotin 3' end (EMSA), unlabeled in MST
GST-DCL3 F4 = GST-DCL3 F4 (UniProt Q9LXW7); assay: MST, EMSA; conditions: EMSA: as in Duan et al. 2012, 1 nmol protein, biotin-labelled RNA; recombinant protein; protein details: GST; label: biotin 3' end (EMSA), unlabeled in MST
GST = GST (UniProt P08515); assay: EMSA; conditions: EMSA: as in Duan et al. 2012, 1 nmol protein, biotin-labelled RNA; recombinant protein; label: biotin 3' end (EMSA), unlabeled in MST

Protein sequences, listed by entry. Tags and fused reporters are not part of them. Lines headed by an entry give the natural chain unless they say otherwise; changes in a name come on top.
UniProt Q9LXW7: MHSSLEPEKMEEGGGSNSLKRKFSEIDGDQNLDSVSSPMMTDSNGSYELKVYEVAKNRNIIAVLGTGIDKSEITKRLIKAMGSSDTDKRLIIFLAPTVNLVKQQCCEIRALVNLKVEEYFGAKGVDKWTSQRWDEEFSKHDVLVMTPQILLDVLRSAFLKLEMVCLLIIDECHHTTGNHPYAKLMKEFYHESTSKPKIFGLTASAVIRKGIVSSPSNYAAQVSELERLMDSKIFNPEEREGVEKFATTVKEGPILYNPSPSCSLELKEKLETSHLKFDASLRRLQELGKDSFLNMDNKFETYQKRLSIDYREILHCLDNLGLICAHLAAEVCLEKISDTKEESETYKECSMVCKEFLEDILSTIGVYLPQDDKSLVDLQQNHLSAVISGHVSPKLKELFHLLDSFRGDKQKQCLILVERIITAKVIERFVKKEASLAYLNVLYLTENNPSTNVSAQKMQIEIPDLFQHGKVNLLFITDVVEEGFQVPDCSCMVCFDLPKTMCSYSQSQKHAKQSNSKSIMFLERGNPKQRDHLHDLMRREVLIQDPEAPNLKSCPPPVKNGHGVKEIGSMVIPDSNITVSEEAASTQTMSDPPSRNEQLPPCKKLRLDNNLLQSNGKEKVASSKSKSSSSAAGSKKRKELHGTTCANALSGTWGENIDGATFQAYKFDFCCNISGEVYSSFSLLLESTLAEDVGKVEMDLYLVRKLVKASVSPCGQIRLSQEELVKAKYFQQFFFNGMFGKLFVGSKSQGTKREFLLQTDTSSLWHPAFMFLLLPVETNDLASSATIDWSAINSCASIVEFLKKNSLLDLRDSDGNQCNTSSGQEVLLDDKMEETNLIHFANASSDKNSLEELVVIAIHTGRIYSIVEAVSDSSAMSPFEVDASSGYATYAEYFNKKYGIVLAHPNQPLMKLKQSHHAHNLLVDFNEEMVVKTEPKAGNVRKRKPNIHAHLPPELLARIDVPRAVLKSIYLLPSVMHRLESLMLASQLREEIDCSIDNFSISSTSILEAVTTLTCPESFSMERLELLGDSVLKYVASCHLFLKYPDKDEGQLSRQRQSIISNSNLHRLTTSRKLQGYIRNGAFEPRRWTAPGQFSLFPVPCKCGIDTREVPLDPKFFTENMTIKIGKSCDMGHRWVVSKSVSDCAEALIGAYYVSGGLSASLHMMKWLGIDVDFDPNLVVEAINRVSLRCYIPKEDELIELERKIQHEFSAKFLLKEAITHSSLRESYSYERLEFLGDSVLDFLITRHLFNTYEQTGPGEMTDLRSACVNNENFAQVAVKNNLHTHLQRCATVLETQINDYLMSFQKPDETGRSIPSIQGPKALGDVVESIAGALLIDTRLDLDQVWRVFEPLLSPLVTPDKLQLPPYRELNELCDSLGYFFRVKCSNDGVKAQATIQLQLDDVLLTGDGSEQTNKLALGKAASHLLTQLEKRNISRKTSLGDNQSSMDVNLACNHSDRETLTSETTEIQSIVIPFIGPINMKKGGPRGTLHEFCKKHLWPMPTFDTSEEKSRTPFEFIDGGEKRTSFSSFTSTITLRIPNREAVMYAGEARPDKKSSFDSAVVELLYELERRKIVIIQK
UniProt P08515, whole entry: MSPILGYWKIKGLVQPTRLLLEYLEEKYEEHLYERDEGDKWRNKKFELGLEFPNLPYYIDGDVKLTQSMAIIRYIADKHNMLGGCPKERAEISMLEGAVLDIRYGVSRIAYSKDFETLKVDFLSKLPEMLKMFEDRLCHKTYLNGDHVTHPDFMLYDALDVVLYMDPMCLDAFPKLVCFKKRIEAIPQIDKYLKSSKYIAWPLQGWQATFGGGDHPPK

Measured: binding result

UACAAGACACGUGCUGAAGUCAAGUUUGAGGGAACACCCUCGUCAACAGGAUCG / AUCCUGUUGACGAGGGUGUCUCCCUCAAACUUGACUUCAGCACGUGUCUUGUAGU [55-bp ds-sRNA]
no binding: GST-DCL3 F1 | GST-DCL3 F2 | GST-DCL3 F3 | GST-DCL3 F4

UCAACAGGAUCGAGCUUAAGG / UUAAGCUCGAUCCUGUUGACG [21-bp ds-sRNA (ds siRGFP)]
no binding: GST | GST-DCL3 F1 | GST-DCL3 F2 | GST-DCL3 F3 | GST-DCL3 F4

UGAAUUUCUGGUAUGGGUCCCGCC / CGGGACCCAUACCAGAAAUUCAUC [24-bp ds-sRNA (dsAtSN1)]
no binding: GST-DCL3 F1 | GST-DCL3 F2 | GST-DCL3 F3 | GST-DCL3 F4

From publication PMC10987413
